PubChem BioAssay AID1053208 | Peter MacCallum Cancer Centre | 2014
The whole screen tested about 17,000 reagents; this is a random part of them. 788 of them (4.7%) count as active. 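Calls rest on z-score classes alone; an extra cut-off of viability at most 70% of control was not applied to them.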 Further read-outs or replicates are left out here.

Aim: 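Find knock-downs that sensitise mouse osteosarcoma cells to doxorubicin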 (primary screen)
System: mouse osteosarcoma cells, early-passage culture from an engineered mouse model of fibroblastic bone tumour
Reagents: siRNA pool against mouse genes, 40 nM
Duration: about 120 h (48 h before drug, then 72 h with drug)
Challenge: doxorubicin 100 nM for 72 h, roughly 30-40% inhibitory dose
Measurement: 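Viability read as ATP luminescence after 72 h of 100 nM doxorubicin or none, duplicate wells averaged, scaled to non-targeting siRNA, then expressed as robust z-scores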
Reading the numbers: viability z-score with doxorubicin: higher = more viable cells under doxorubicin; viability z-score without drug: higher = more viable cells with knock-down alone
Hit rule: 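Called active if knock-down leaves viability unchanged without drug (z within -2 to 2) but lowers it with doxorubicin (z at or under -2)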

| Target gene | PubChem SID | combined z-score class | viability z-score with doxorubicin | viability z-score without drug | Call |
| --- | --- | --- | --- | --- | --- |
| Rad50 | SID152311900 | no change with or without drug | -0.22 | -0.51 | inactive |
| Retreg1 | SID152270484 | no change with or without drug | -1.57 | 1.52 | inactive |
| Nckap5 | SID152337589 | no change with or without drug | 0.9 | 0.67 | inactive |
| Or8c8 | SID152320261 | no change with or without drug | 0.11 | 0 | inactive |
| Armcx2 | SID152275700 | no change with or without drug | 0 | 0.51 | inactive |
| Ndufs8 | SID152265110 | no change with or without drug | 0.56 | -0.84 | inactive |
| Ccr7 | SID152283514 | no change with or without drug | -0.45 | 0.51 | inactive |
| Stx4a | SID152261710 | no change with or without drug | -0.11 | -0.51 | inactive |
| Tnfrsf18 | SID152282665 | no change with or without drug | 0.34 | -0.17 | inactive |
| Krtap15-1 | SID152320457 | low cell count with doxorubicin only | -3.04 | -1.35 | active |
| Prep | SID152266787 | no change with or without drug | 0.22 | 1.18 | inactive |
| Ndnf | SID152298749 | low cell count with doxorubicin only | -2.36 | -1.52 | active |
| Rnpep | SID152306055 | no change with or without drug | -1.12 | -1.18 | inactive |
| Or4c106 | SID152269781 | no change with or without drug | -0.45 | 0 | inactive |
| Potefam1 | SID152283430 | no change with or without drug | -0.45 | 1.35 | inactive |
| Arl2 | SID152283016 | no change with or without drug | -1.01 | 0.17 | inactive |
| Meak7 | SID152272045 | no change with or without drug | 1.01 | 0.84 | inactive |

Part of the list above in another layout.
Ccr7 [SID152283514] → combined z-score class = no change with or without drug; viability z-score with doxorubicin = -0.45; viability z-score without drug = 0.51; Call = inactive
Stx4a [SID152261710] → combined z-score class = no change with or without drug; viability z-score with doxorubicin = -0.11; viability z-score without drug = -0.51; Call = inactive
Tnfrsf18 [SID152282665] → combined z-score class = no change with or without drug; viability z-score with doxorubicin = 0.34; viability z-score without drug = -0.17; Call = inactive

The results go on:
| Target gene | PubChem SID | combined z-score class | viability z-score with doxorubicin | viability z-score without drug | Call |
| --- | --- | --- | --- | --- | --- |
| Psmb9 | SID152342801 | no change with or without drug | -0.45 | 0.17 | inactive |
| Klk1b7-ps | SID152339446 | no change with or without drug | 1.12 | 0.51 | inactive |
| Usp50 | SID152259487 | low cell count with doxorubicin only | -2.02 | 0.67 | active |
| Ptrh2 | SID152318917 | no change with or without drug | -0.45 | -0.17 | inactive |
| Cryab | SID152306111 | low cell count with doxorubicin only | -2.47 | 0.34 | active |
| Actr3 | SID152282311 | no change with or without drug | -0.45 | -1.18 | inactive |
| Mrpl22 | SID152341671 | no change with or without drug | 0.79 | 0.67 | inactive |
| Nfix | SID152300526 | no change with or without drug | 1.12 | 0 | inactive |
| Olfm3 | SID152342913 | no change with or without drug | -0.34 | -0.84 | inactive |
| Rfxank | SID152323613 | no change with or without drug | 0.9 | -1.52 | inactive |
| Zfp933 | SID152322377 | no change with or without drug | -0.22 | 1.52 | inactive |
| Braf | SID152259833 | no change with or without drug | 0 | 0.51 | inactive |
| Fbxo45 | SID152271157 | no change with or without drug | -0.11 | -0.17 | inactive |
| Or13a20 | SID152329505 | low cell count without drug only | -0.45 | -2.53 | inactive |
| Ngef | SID152322937 | no change with or without drug | 0.22 | 0.17 | inactive |
| 2310057J18Rik | SID152301629 | low cell count with doxorubicin only | -2.47 | 0.17 | active |
| Tcl1 | SID152322244 | no change with or without drug | -1.35 | -0.84 | inactive |
| Pcyt1b | SID152296938 | no change with or without drug | 0.9 | 1.18 | inactive |
| Magea3 | SID152339734 | no change with or without drug | -1.24 | -0.17 | inactive |
| AMIGO | SID152338485 | no change with or without drug | 0 | -0.67 | inactive |
| Ift46 | SID152302652 | no change with or without drug | 0.45 | -0.17 | inactive |
| Gatd3a | SID152311298 | no change with or without drug | 0.22 | -1.18 | inactive |
| Ndst4 | SID152264382 | no change with or without drug | 0.45 | -0.84 | inactive |
| Sacm1l | SID152316984 | no change with or without drug | -0.9 | 0.17 | inactive |
| Rnd1 | SID152342691 | no change with or without drug | 0.45 | 0.17 | inactive |
| Rbm14 | SID152328577 | no change with or without drug | -0.67 | -0.67 | inactive |
| Bpi | SID152329805 | no change with or without drug | 0.22 | 0.51 | inactive |
| Il10ra | SID152288963 | no change with or without drug | -0.34 | 0.34 | inactive |
| Nup37 | SID152335859 | no change with or without drug | 0.56 | -1.01 | inactive |
| Cul4a | SID152324151 | no change with or without drug | -1.12 | 0.17 | inactive |
| Or8k17 | SID152294051 | no change with or without drug | -1.01 | -1.85 | inactive |
| Sec13 | SID152293546 | no change with or without drug | 0.34 | -0.51 | inactive |
| Met | SID152288881 | no change with or without drug | -0.22 | -1.85 | inactive |
